Target: Neutrophil collagenase (Homo sapiens, UniProt P22894)
Assay: Inhibition of human recombinant MMP8
In short: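 Activation of pro-MMP-8 used APMA 2 mM for 1 h at 37 °C, with enzyme at 1.5 nM final. Enzyme and inhibitor (seven concentrations) were preincubated 4 h at 25 °C in Tris-buffered saline pH 7.5 with CaCl2 10 mM, Brij 35 0.05%, DMSO 1%. Then Mca-Lys-Pro-Leu-Gly-Leu-Dpa-Ala-Arg-NH2 was added, and fluorescence (ex 325, em 400 nm) was read every 15 s for 20 min, triplicate. IC50 was obtained via Vi/Vo = 1/(1+[I]/IC50).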

Protein sequences, listed by entry. Tags and fused reporters are not part of them. Lines headed by an entry give the natural chain unless they say otherwise; changes in a name come on top.
UniProt P22894: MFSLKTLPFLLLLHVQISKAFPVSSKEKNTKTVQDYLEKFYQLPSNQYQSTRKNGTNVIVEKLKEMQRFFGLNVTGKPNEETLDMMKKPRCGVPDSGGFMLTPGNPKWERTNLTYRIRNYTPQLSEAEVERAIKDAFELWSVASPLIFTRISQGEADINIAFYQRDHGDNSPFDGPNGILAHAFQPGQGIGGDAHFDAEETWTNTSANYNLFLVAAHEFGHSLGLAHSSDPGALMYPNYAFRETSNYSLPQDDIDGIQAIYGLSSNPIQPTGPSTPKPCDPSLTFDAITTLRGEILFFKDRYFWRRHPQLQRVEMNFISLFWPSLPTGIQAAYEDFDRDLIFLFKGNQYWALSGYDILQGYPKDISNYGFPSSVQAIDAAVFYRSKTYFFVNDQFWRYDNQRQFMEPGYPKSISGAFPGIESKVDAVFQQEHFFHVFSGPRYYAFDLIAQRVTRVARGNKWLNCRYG

| IC50 | SMILES |
| --- | --- |
| 48 nM | CNC(=O)[C@H](Cc1ccccc1)NC(=O)[C@H](CC(=O)NO)CC(C)C |
| 0.046 nM | CNC(=O)[C@H](Cc1ccccc1)NC(=O)[C@@H](CC(=O)NO)CC(C)C |

Source: ChEMBL document CHEMBL1156676, “Peptidyl 3-substituted 1-hydroxyureas as isosteric analogues of succinylhydroxamate MMP inhibitors” (Eur J Med Chem, 2008)
